No constants are given. Whether binding was seen depends on the method and setting. In cells and extracts the contact can be indirect. Some binding calls cover weakened binding; strength is not graded here. Tags and fused reporters may be left off the sequences shown.
Target: T1, DCP5-GFP (Arabidopsis thaliana) (UniProt Q9C658)
T1 sequence: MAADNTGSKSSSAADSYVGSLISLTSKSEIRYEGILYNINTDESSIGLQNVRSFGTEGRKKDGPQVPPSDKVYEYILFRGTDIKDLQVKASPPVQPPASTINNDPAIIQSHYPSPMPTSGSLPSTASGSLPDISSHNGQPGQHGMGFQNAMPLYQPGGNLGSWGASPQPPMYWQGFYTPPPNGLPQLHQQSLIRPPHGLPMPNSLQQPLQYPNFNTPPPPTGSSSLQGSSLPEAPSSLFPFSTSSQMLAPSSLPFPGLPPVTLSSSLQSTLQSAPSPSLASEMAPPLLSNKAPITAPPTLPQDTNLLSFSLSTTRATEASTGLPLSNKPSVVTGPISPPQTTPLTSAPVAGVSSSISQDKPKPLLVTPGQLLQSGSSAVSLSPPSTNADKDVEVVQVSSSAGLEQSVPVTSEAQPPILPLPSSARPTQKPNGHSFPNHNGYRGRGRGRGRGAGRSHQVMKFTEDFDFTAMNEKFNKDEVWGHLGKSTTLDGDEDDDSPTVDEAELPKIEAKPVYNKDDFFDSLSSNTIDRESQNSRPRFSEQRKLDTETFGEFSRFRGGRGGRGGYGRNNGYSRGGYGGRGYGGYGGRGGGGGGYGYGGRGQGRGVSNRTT
Assay: co-IP

HopN1-HA (from UniProt G3XDC5 1-350) was tested, and the binding was “binds”.

— doi:10.1101/2025.01.09.632196
